Assay results from paper PMC10744335.
Results are given in words; binding and its absence hold for the method and conditions named. In cells and extracts the contact can be indirect. These calls come from enrichment with a bait or labelling near it, and not all partners need be listed. Where a sequence is shown, tags or fusion partners need not be part of it.

The chains behind the UniProt entries cited, without tags or fusion partners. Where a name states a change or a piece, a line headed by the entry shows the natural chain unless it says otherwise.
UniProt P07355: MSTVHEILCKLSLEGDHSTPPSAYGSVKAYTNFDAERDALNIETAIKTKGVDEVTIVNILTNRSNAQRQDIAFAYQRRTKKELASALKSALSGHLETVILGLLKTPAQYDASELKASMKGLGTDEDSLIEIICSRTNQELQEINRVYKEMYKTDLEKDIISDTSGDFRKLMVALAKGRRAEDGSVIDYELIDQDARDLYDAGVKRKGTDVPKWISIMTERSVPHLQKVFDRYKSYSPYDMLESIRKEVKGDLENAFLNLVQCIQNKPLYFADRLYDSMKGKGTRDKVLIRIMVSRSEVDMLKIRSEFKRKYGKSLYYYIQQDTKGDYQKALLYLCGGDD
UniProt Q9NYF8: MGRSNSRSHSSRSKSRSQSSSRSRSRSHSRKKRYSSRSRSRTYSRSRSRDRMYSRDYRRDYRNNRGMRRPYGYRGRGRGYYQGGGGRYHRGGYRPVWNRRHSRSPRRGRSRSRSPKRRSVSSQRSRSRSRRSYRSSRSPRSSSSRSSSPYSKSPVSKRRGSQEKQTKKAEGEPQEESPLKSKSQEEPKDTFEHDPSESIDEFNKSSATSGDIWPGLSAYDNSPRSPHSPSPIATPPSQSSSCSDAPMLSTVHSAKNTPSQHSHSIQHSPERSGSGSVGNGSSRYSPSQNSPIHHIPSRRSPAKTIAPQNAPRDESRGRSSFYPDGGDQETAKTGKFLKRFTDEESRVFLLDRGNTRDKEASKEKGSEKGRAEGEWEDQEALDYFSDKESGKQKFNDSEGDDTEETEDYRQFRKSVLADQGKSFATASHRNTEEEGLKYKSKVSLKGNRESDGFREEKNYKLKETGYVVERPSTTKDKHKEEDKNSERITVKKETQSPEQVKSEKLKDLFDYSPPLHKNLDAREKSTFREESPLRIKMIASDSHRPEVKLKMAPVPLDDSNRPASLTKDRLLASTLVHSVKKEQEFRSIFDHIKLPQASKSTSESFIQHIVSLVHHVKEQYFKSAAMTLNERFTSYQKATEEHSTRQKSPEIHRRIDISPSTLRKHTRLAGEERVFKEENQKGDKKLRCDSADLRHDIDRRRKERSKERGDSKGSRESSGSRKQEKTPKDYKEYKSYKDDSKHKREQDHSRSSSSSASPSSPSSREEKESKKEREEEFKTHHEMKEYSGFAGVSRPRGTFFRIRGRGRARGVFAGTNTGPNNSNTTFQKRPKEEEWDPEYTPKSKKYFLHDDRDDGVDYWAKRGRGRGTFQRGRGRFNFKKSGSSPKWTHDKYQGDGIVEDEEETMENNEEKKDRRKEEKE
UniProt P16403: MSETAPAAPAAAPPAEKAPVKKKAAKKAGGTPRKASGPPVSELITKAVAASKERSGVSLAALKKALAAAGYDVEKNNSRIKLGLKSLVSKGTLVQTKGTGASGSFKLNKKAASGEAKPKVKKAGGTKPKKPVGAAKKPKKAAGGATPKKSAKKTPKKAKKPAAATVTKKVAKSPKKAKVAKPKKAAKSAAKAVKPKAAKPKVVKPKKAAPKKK
UniProt P67809: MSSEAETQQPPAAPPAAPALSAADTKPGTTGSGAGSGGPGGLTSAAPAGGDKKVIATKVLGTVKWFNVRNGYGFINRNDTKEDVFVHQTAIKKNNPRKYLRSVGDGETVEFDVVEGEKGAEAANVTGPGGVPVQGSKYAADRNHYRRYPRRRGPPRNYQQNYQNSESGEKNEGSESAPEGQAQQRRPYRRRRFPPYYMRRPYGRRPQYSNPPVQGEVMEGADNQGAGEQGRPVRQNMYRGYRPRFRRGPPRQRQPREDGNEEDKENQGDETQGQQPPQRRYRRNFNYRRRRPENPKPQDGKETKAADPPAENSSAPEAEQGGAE
UniProt P62140: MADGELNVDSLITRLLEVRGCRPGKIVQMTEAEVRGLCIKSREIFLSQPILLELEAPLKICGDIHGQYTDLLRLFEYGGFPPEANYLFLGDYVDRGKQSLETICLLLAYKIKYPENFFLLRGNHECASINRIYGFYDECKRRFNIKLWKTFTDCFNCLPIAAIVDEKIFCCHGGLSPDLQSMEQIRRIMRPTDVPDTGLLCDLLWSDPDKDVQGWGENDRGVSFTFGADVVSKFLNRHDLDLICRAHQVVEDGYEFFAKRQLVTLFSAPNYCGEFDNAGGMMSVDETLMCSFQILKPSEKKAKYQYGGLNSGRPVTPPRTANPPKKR
UniProt P31943: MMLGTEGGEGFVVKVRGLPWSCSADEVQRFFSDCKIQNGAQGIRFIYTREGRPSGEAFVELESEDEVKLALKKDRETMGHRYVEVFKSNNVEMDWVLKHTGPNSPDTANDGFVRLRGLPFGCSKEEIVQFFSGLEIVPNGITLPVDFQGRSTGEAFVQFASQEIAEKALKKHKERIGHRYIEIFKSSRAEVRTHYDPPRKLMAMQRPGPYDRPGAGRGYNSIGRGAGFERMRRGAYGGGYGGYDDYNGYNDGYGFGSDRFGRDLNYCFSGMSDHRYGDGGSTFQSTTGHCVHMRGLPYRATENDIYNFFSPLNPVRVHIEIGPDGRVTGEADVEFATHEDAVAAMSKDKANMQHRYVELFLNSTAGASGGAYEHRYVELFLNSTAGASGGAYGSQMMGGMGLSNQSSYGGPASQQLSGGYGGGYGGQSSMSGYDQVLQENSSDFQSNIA
UniProt P38159: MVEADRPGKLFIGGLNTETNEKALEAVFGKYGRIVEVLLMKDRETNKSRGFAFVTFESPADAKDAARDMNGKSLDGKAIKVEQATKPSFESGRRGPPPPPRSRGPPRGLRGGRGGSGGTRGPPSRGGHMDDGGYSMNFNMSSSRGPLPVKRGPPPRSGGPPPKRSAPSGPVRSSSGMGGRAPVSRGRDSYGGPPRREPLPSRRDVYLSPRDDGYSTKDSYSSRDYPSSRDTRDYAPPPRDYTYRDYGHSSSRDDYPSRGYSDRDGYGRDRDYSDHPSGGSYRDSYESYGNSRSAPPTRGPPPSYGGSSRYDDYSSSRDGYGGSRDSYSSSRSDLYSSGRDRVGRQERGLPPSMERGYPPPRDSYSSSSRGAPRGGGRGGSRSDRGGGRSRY
UniProt Q07955: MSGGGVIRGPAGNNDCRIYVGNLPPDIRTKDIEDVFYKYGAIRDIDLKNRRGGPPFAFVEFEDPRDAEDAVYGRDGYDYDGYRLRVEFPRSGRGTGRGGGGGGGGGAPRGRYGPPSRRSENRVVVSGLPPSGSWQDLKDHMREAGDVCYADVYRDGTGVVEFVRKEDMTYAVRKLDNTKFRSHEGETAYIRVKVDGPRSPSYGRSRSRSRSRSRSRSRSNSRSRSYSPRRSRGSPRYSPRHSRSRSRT

T1: GST-tagged bacterially expressed TIMAP protein (human) (UniProt Q96T49)
T1 sequence: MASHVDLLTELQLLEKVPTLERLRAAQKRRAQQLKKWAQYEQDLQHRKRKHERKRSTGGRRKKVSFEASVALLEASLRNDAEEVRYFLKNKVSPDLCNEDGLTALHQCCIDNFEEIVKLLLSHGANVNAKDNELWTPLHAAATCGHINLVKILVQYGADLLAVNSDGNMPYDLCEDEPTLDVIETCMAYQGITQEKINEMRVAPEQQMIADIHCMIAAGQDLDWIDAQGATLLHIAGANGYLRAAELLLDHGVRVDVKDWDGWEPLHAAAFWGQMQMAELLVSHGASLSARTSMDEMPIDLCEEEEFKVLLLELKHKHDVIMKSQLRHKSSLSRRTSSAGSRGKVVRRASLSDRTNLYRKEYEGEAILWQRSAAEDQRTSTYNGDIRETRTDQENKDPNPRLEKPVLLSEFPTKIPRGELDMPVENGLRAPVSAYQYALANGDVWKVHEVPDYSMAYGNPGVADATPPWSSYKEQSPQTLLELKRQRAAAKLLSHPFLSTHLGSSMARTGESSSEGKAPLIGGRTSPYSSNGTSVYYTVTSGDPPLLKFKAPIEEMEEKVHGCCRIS

B1: Pyrroline-5-carboxylate reductase 2 (enzyme, UniProt Q96C36 1-320)
chain: MSVGFIGAGQLAYALARGFTAAGILSAHKIIASSPEMNLPTVSALRKMGVNLTRSNKETVKHSDVLFLAVKPHIIPFILDEIGADVQARHIVVSCAAGVTISSVEKKLMAFQPAPKVIRCMTNTPVVVQEGATVYATGTHALVEDGQLLEQLMSSVGFCTEVEEDLIDAVTGLSGSGPAYAFMALDALADGGVKMGLPRRLAIQLGAQALLGAAKMLLDSEQHPCQLKDNVCSPGGATIHALHFLESGGFRSLLINAVEASCIRTRELQSMADQEKISPAALKKTLLDRVKLESPTVSTLTPSSPGKLLTRSLALGGKKD
B2: BTB/POZ domain-containing adapter for CUL3-mediated RhoA degradation protein 2 (protein, UniProt Q13829 1-316)
chain: MSGDTCLCPASGAKPKLSGFKGGGLGNKYVQLNVGGSLYYTTVRALTRHDTMLKAMFSGRMEVLTDKEGWILIDRCGKHFGTILNYLRDDTITLPQNRQEIKELMAEAKYYLIQGLVNMCQSALQDKKDSYQPVCNIPIITSLKEEERLIESSTKPVVKLLYNRSNNKYSYTSNSDDHLLKNIELFDKLSLRFNGRVLFIKDVIGDEICCWSFYGQGRKLAEVCCTSIVYATEKKQTKVEFPEARIYEETLNVLLYETPRVPDNSLLEATSRSRSQASPSEDEETFELRDRVRRIHVKRYSTYDDRQLGHQSTHRD
B3: Thyroid-hormone-receptor-associated protein 3 (protein, UniProt Q9Y2W1 1-955)
chain: MSKTNKSKSGSRSSRSRSASRSRSRSFSKSRSRSRSLSRSRKRRLSSRSRSRSYSPAHNRERNHPRVYQNRDFRGHNRGYRRPYYFRGRNRGFYPWGQYNRGGYGNYRSNWQNYRQAYSPRRGRSRSRSPKRRSPSPRSRSHSRNSDKSSSDRSRRSSSSRSSSNHSRVESSKRKSAKEKKSSSKDSRPSQAAGDNQGDEAKEQTFSGGTSQDTKASESSKPWPDATYGTGSASRASAVSELSPRERSPALKSPLQSVVVRRRSPRPSPVPKPSPPLSSTSQMGSTLPSGAGYQSGTHQGQFDHGSGSLSPSKKSPVGKSPPSTGSTYGSSQKEESAASGGAAYTKRYLEEQKTENGKDKEQKQTNTDKEKIKEKGSFSDTGLGDGKMKSDSFAPKTDSEKPFRGSQSPKRYKLRDDFEKKMADFHKEEMDDQDKDKAKGRKESEFDDEPKFMSKVIGANKNQEEEKSGKWEGLVYAPPGKEKQRKTEELEEESFPERSKKEDRGKRSEGGHRGFVPEKNFRVTAYKAVQEKSSSPPPRKTSESRDKLGAKGDFPTGKSSFSITREAQVNVRMDSFDEDLARPSGLLAQERKLCRDLVHSNKKEQEFRSIFQHIQSAQSQRSPSELFAQHIVTIVHHVKEHHFGSSGMTLHERFTKYLKRGTEQEAAKNKKSPEIHRRIDISPSTFRKHGLAHDEMKSPREPGYKAEGKYKDDPVDLRLDIERRKKHKERDLKRGKSRESVDSRDSSHSRERSAEKTEKTHKGSKKQKKHRRARDRSRSSSSSSQSSHSYKAEEYTEETEEREESTTGFDKSRLGTKDFVGPSERGGGRARGTFQFRARGRGWGRGNYSGNNNNNSNNDFQKRNREEEWDPEYTPKSKKYYLHDDREGEGSDKWVSRGRGRGAFPRGRGRFMFRKSSTSPKWAHDKFSGEEGEIEDDESGTENREEKDNIQPTTE
B4: Polymerase delta-interacting protein 3 (protein, UniProt Q9BY77 1-421)
chain: MADISLDELIRKRGAAAKGRLNARPGVGGVRSRVGIQQGLLSQSTRTATFQQRFDARQKIGLSDARLKLGVKDAREKLLQKDARFRIKGKVQDAREMLNSRKQQTTVPQKPRQVADAREKISLKRSSPAAFINPPIGTVTPALKLTKTIQVPQQKAMAPLHPHPAGMRINVVNNHQAKQNLYDLDEDDDGIASVPTKQMKFAASGGFLHHMAGLSSSKLSMSKALPLTKVVQNDAYTAPALPSSIRTKALTNMSRTLVNKEEPPKELPAAEPVLSPLEGTKMTVNNLHPRVTEEDIVELFCVCGALKRARLVHPGVAEVVFVKKDDAITAYKKYNNRCLDGQPMKCNLHMNGNVITSDQPILLRLSDSPSMKKESELPRRVNSASSSNPPAEVDPDTILKALFKSSGASVTTQPTEFKIKL
B5: Carbonyl reductase [NADPH] 3 (enzyme, UniProt O75828 1-277)
chain: MSSCSRVALVTGANRGIGLAIARELCRQFSGDVVLTARDVARGQAAVQQLQAEGLSPRFHQLDIDDLQSIRALRDFLRKEYGGLNVLVNNAAVAFKSDDPMPFDIKAEMTLKTNFFATRNMCNELLPIMKPHGRVVNISSLQCLRAFENCSEDLQERFHSETLTEGDLVDLMKKFVEDTKNEVHEREGWPNSPYGVSKLGVTVLSRILARRLDEKRKADRILVNACCPGPVKTDMDGKDSIRTVEEGAETPVYLALLPPDATEPQGQLVHDKVVQNW
B6: Pyrroline-5-carboxylate reductase 1, mitochondrial (enzyme, UniProt P32322 1-319)
chain: MSVGFIGAGQLAFALAKGFTAAGVLAAHKIMASSPDMDLATVSALRKMGVKLTPHNKETVQHSDVLFLAVKPHIIPFILDEIGADIEDRHIVVSCAAGVTISSIEKKLSAFRPAPRVIRCMTNTPVVVREGATVYATGTHAQVEDGRLMEQLLSSVGFCTEVEEDLIDAVTGLSGSGPAYAFTALDALADGGVKMGLPRRLAVRLGAQALLGAAKMLLHSEQHPGQLKDNVSSPGGATIHALHVLESGGFRSLLINAVEASCIRTRELQSMADQEQVSPAAIKKTILDKVKLDSPAGTALSPSGHTKLLPRSLAPAGKD
B7: Condensin-2 complex subunit H2 (protein, UniProt Q6IBW4 1-605)
chain: MEDVEARFAHLLQPIRDLTKNWEVDVAAQLGEYLEELDQICISFDEGKTTMNFIEAALLIQGSACVYSKKVEYLYSLVYQALDFISGKRRAKQLSSVQEDRANGVASSGVPQEAENEFLSLDDFPDSRTNVDLKNDQTPSEVLIIPLLPMALVAPDEMEKNNNPLYSRQGEVLASRKDFRMNTCVPHPRGAFMLEPEGMSPMEPAGVSPMPGTQKDTGRTEEQPMEVSVCRSPVPALGFSQEPGPSPEGPMPLGGGEDEDAEEAVELPEASAPKAALEPKESRSPQQSAALPRRYMLREREGAPEPASCVKETPDPWQSLDPFDSLESKPFKKGRPYSVPPCVEEALGQKRKRKGAAKLQDFHQWYLAAYADHADSRRLRRKGPSFADMEVLYWTHVKEQLETLRKLQRREVAEQWLRPAEEDHLEDSLEDLGAADDFLEPEEYMEPEGADPREAADLDAVPMSLSYEELVRRNVELFIATSQKFVQETELSQRIRDWEDTVQPLLQEQEQHVPFDIHTYGDQLVSRFPQLNEWCPFAELVAGQPAFEVCRSMLASLQLANDYTVEITQQPGLEMAVDTMSLRLLTHQRAHKRFQTYAAPSMAQP
B8: Carbonyl reductase [NADPH] 1 (enzyme, UniProt P16152 1-277)
chain: MSSGIHVALVTGGNKGIGLAIVRDLCRLFSGDVVLTARDVTRGQAAVQQLQAEGLSPRFHQLDIDDLQSIRALRDFLRKEYGGLDVLVNNAGIAFKVADPTPFHIQAEVTMKTNFFGTRDVCTELLPLIKPQGRVVNVSSIMSVRALKSCSPELQQKFRSETITEEELVGLMNKFVEDTKKGVHQKEGWPSSAYGVTKIGVTVLSRIHARKLSEQRKGDKILLNACCPGWVRTDMAGPKATKSPEEGAETPVYLALLPPDAEGPHGQFVSEKRVEQW

molecular target: T1, GST-tagged bacterially expressed TIMAP protein (human); assay: affinity purification with mass spectrometry; GST–TIMAP pull-down from the nuclear fraction of undifferentiated SH-SY5Y cells; bound proteins separated on SDS-PAGE, MS/MS analysis; only the target purified

binding | Molecule
binds | Annexin A2 (from UniProt P07355 1-339)
binds | Bcl-2-associated transcription factor 1 (from UniProt Q9NYF8 1-920)
binds | Histone H1.2 (from UniProt P16403 1-213)
binds | Nuclease-sensitive element-binding protein 1 (from UniProt P67809 1-324)
binds | protein phosphatase 1 catalytic subunit, δ isoform (PP1cδ) (from UniProt P62140 1-327) (enzyme)
binds | Heterogeneous nuclear ribonucleoprotein H (from UniProt P31943 1-449)
binds | RNA-binding motif protein (from UniProt P38159 1-391)
binds | Serine/arginine-rich splicing factor 1 (from UniProt Q07955 1-248)
binds | B1
binds | B2
binds | B3
binds | B4
binds | B5
binds | B6
binds | B7
binds | B8
